# The list shows a part of the results. Further columns of the screen follow, without active or inactive calls. Compounds called inactive in the main read-out are mostly missing here. Words in brackets tell the shape of the fitted curve; partial curves, single points and poor fits give uncertain potencies.
# Test: qHTS Assay for Lipid Storage Modulators in Drosophila S3 Cells;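 on cell number change: cells counted by Cell Tracker Red CMTPX staining in the red channel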
# Conditions: BODIPY lipid droplet fluorescence, 18-24 h; for cell number change: measured here: cell count max response, cells fed with added oleic acid
# How it was run: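 Drosophila S3 cells got compounds at several concentrations plus oleic acid (400 uM solution). Laser-scanning cytometry with 488 nm excitation read lipid droplets at 500-530 nm and cells at 575-640 nm. Percent activity was relative to 20 uM Triacsin C.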
# [1] = measured here: cell number channel AC50, cells fed with added oleic acid
# [2] = measured here: lipid fluorescence (Fed channel) AC50, cells fed with added oleic acid
Structure (SMILES),cell number change [%],AC50 [1],AC50 [2]
CN(C)CCCNc1c2ccccc2nc2ccccc12,-41.7,"18.4 µM [falling, single point]","16.4 µM [falling, single point]"
CCOC(=O)C1(Cc2cccc(OC)c2)CCN(C/C=C/c2ccccc2)CC1,-21.4,–,"2.06 µM [falling, partial curve]"
COCCn1c(CN2CCN(C(c3ccccc3)c3ccccc3)CC2)nc2c1c(=O)n(C)c(=O)n2C,-38.9,"3.66 µM [falling, single point]","0.116 µM [falling, full curve, poor fit]"
Cc1ccc(CNC(=O)c2ccc(N3CCC4(CC3)CC(c3ccccc3)=NO4)c(N)c2)cc1,-10.2,–,"1.03 µM [falling, full curve, poor fit]"
COc1ccc2oc(C(=O)OCC(=O)N(C)CC(=O)Nc3ccc(F)cc3)c(C)c2c1,-16,"0.092 µM [falling, full curve, poor fit]","0.058 µM [falling, full curve]"
Cc1cccc(NC(=O)CNC(=O)CSc2nc(N)cc(N)n2)c1C,18,–,–
CCOC(=O)c1sc2ncnc(N3CCN(C(=O)OCC)CC3)c2c1C,–,–,"7.31 µM [rising, partial curve]"
COc1cc(C2c3c(oc4ccc(Cl)cc4c3=O)C(=O)N2Cc2ccco2)cc(OC)c1OC (configuration not stated),0.622,–,–
COCCCn1c(SCC(=O)NC2CCCCC2)nc2ccccc2c1=O,-17.1,–,"6.51 µM [falling, single point]"
COc1cc(C(=O)O/N=C2/C=C(C)C(=O)C=C2C)cc(OC)c1OC,10.9,–,"29.1 µM [rising, single point]"
CC(C)C(c1nnnn1Cc1ccc(F)cc1)N1CCN(c2ccc(O)cc2)CC1 (configuration not stated),-6.68,–,–
O=c1[nH]c2cc([N+](=O)[O-])c(NCCO)c([N+](=O)[O-])c2[nH]1,-35.6,"1.03 µM [falling, full curve]",–
COc1ccccc1-c1c(C)[nH]n2c(=O)c(Cc3ccccc3)c(C)nc12,-41.8,"29.1 µM [falling, single point]","25.9 µM [falling, partial curve, poor fit]"
CN1CCC/C1=C/C=C1\SC(=S)NC1=O,-20.5,–,"14.6 µM [falling, single point]"
Cc1c(N=Cc2cc(Br)cc(Br)c2O)cccc1C(=O)O,30.4,"2.06 µM [rising, full curve, poor fit]",–
C=CCNC(=S)N/N=C/c1ccc(C)c([N+](=O)[O-])c1,21.3,–,"4.61 µM [rising, partial curve]"

# Quoted at random: 2 records from the list.
Structure (SMILES),cell number change [%],AC50 [1],AC50 [2]
C=CCNC(=S)N/N=C/c1ccc(C)c([N+](=O)[O-])c1,21.3,–,"4.61 µM [rising, partial curve]"
COc1cc(C2c3c(oc4ccc(Cl)cc4c3=O)C(=O)N2Cc2ccco2)cc(OC)c1OC (configuration not stated),0.622,–,–

# From PubChem BioAssay AID2685 (National Center for Advancing Translational Sciences (NCATS), 2010)
